From PMC6420625
These are yes or no findings as the source states them, for the method shown. For some assays here: A result given as binding can be weak or reduced; the word gives no strength. Tags and fused reporters may be left off the sequences shown. For some assays here: Binding seen in cells or lysates may run through a third protein.

B1: Irgb2-b1CIM, β-lactamase fragment fusion (PCA) (protein, UniProt U5NGE1 1-835)
chain: MGQTSSSTSPPKEDPPLTFQVKTKVLSQELIASIESSLENGNLQETVSAISSALGDIEKAPLNIAVMGETGAGKSSLINALQGVGDDEEGAAASTGIIHTTTERTPYTYTKFPSVTLWDLPGIGSTAFQPHDYLKKIEFEEYDFFIIVSAIRIKQSDIELAKAIVQMNRGLYFVKTKTDSDLVNEKRCNPMRFNRENTLKSIRICLSSNLKERFQQEPPVFLVSNFDVSDFDFPKLESTLLSQLPAYKHQIFMSTLQVVINAIVDRKRDMLKQKIWKESIMPRAWATIPSRGLTQKDMEMLQQTLNDYRSSFGLDEASLENIAEDLNVTLEELKANIKSPHLLSDEPDTSLTEKLLKYIGNPYFSKVFHLQNYFIDTVASDVKIILSKEELFTEQHPPLNTTTCQTSTGRTSQITAQLLEFNFKNFFKNFKKESKILSEETITLIESHLENKNLKEALTVISHALRNIDKAPLNIAVTGETGTGKSSFINALRGISSEEKDAAPTGVIETTMKRTPYPHPKLPNVTIWDLPGIGSTNFPPQNYLTEMKFGEYDFFIIISATRFKEIDAHLAKAIAKMNTKFYFVRTKIDQDVSNEQRSKPRSFNRDSVLKKIKDECLGLLQKVLSSQPPIFLVSNFDVSDFDFPKLETTLLRELPAHKRHLFMMSLHSVTETTIARKRDFLRQKIWLEALKAGVWATIPLGGLVRDKMQKLEETLNLYRSYFGLDEASLENIAKDFNVSVNEIKAHLRSLQLLTKNNDMSFKEKLLKYIEYISCVTGGPLASGLYFRKTYYWQSLFIDTVASDAKSLLNKEEFLSEKPGSCLSDLPEYWETGMEL
B2: Irgb2-b1CIM, yeast two-hybrid fusion (protein, UniProt U5NGE1 1-835)
chain: MGQTSSSTSPPKEDPPLTFQVKTKVLSQELIASIESSLENGNLQETVSAISSALGDIEKAPLNIAVMGETGAGKSSLINALQGVGDDEEGAAASTGIIHTTTERTPYTYTKFPSVTLWDLPGIGSTAFQPHDYLKKIEFEEYDFFIIVSAIRIKQSDIELAKAIVQMNRGLYFVKTKTDSDLVNEKRCNPMRFNRENTLKSIRICLSSNLKERFQQEPPVFLVSNFDVSDFDFPKLESTLLSQLPAYKHQIFMSTLQVVINAIVDRKRDMLKQKIWKESIMPRAWATIPSRGLTQKDMEMLQQTLNDYRSSFGLDEASLENIAEDLNVTLEELKANIKSPHLLSDEPDTSLTEKLLKYIGNPYFSKVFHLQNYFIDTVASDVKIILSKEELFTEQHPPLNTTTCQTSTGRTSQITAQLLEFNFKNFFKNFKKESKILSEETITLIESHLENKNLKEALTVISHALRNIDKAPLNIAVTGETGTGKSSFINALRGISSEEKDAAPTGVIETTMKRTPYPHPKLPNVTIWDLPGIGSTNFPPQNYLTEMKFGEYDFFIIISATRFKEIDAHLAKAIAKMNTKFYFVRTKIDQDVSNEQRSKPRSFNRDSVLKKIKDECLGLLQKVLSSQPPIFLVSNFDVSDFDFPKLETTLLRELPAHKRHLFMMSLHSVTETTIARKRDFLRQKIWLEALKAGVWATIPLGGLVRDKMQKLEETLNLYRSYFGLDEASLENIAKDFNVSVNEIKAHLRSLQLLTKNNDMSFKEKLLKYIEYISCVTGGPLASGLYFRKTYYWQSLFIDTVASDAKSLLNKEEFLSEKPGSCLSDLPEYWETGMEL
B3: VAND GRA7, yeast two-hybrid fusion (protein, UniProt O00933 1-236)
chain: MARHAIFSALCVLGLVAAALPQFATAATASDDELMSRIRNSDFFDGQAPVDSLRPTNAGVDSKGTDDHLTTSMDKASVESQLPRREPLETEPDEQEEVHFRKRGVRSDAEVTDDNIYEEHTDRKVVPRKSEGKRSFKDLLKKLALPAVGMGASYFAADRLVPELTEEQQRGDEPLTTGQNVGTVLGFAALAAAAAFLGMGLTRTYRHFSPRKNRSRQPALEQEVPESGEDGEDARQ

Tests used:
[1] = target: ROP5C (T. gondii RH), β-lactamase fragment fusion (PCA) (Toxoplasma gondii, strain RH); assay: split reporter; protein-fragment complementation assay with split TEM-1 β-lactamase (BlaN/BlaC) in co-transfected HEK293T cells; nitrocefin hydrolysis rate in lysates
[2] = target: ROP5A (T. gondii RH), yeast two-hybrid fusion (Toxoplasma gondii, strain RH); assay: two-hybrid; S. cerevisiae PJ69-4α, Gal4 AD (pGAD-C3) and BD (pGBD-C3) fusions; growth on triple dropout medium (SD/-Leu/-Trp/-His) with 1 mM 3-AT, 5 to 10 days at 30 °C
[3] = target: ROP5C (T. gondii RH), yeast two-hybrid fusion (Toxoplasma gondii, strain RH); assay: as above
[4] = target: VAND ROP5A, yeast two-hybrid fusion (Toxoplasma gondii, strain VAND); assay: as above
[5] = target: VAND ROP5B1, yeast two-hybrid fusion (Toxoplasma gondii, strain VAND); assay: as above
[6] = target: VAND ROP5B2, yeast two-hybrid fusion (Toxoplasma gondii, strain VAND); assay: as above
[7] = target: VAND ROP5B3, yeast two-hybrid fusion (Toxoplasma gondii, strain VAND); assay: as above

Binder | binding [1] | binding [2] | binding [3] | binding [4] | binding [5] | binding [6] | binding [7]
B1 | binds |  |  |  |  |  | 
B2 |  | no binding | binds | no binding | no binding | no binding | no binding
B3 |  |  |  | no binding | no binding | no binding | no binding
